The assay addresses T1, His-tagged MinJ (B. subtilis) (UniProt O34375).
T1 sequence: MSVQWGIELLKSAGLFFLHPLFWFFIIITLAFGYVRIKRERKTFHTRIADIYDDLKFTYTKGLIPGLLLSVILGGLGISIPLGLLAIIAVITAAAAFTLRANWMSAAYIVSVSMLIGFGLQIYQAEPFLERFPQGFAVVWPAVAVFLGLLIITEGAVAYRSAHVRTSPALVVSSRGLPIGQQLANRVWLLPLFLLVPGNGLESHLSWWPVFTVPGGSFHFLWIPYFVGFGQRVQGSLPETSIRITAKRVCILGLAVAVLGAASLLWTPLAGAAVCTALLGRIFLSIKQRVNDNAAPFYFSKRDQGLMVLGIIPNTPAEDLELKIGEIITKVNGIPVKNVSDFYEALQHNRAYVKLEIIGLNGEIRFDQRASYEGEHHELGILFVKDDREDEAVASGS
As to the kind of experiment: pull-down; B. subtilis IB1659 extract (1% Triton X100) on Ni2+ Sepharose resin, 1 h at 4°C; 20 mM Tris-HCl pH 8, 150 mM NaCl, wash with 150 mM imidazole; MinJ-His held, CFP-RodZ detected with anti-GFP.

Results are given in words; binding and its absence hold for the method and conditions named. Binding seen in cells or lysates may run through a third protein. A result given as binding can be weak or reduced; the word gives no strength. Where a sequence is shown, tags or fusion partners need not be part of it.

Turning to CFP-RodZ (B. subtilis), the binding entry is listed as “binds”.
